Reference: PMC7131931
These are yes or no findings as the source states them, for the method shown. Binding calls can cover weak binding; strength is not graded here.

Sequences of proteins named here, by UniProt entry; tags and fusion partners are left off. A change or cut given only in a name is not applied to a line headed by its entry.
UniProt P25116: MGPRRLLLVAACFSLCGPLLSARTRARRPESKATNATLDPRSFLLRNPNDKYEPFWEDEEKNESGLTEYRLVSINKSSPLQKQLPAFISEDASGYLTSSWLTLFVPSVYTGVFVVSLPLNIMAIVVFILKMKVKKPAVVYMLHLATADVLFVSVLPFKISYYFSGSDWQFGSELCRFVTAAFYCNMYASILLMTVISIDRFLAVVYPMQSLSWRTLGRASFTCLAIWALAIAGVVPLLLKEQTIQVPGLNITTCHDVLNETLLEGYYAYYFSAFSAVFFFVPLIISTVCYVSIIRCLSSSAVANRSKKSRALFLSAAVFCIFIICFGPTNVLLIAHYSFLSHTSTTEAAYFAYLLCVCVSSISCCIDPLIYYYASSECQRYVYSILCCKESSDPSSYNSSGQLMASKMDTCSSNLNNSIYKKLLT

Target: Protease-activated receptor 1 (UniProt P25116)
Experiment: MST; PAR-1 at constant concentration (printed as 1 mmol/L) with twofold serial dilutions of EPCR; RED-NHS labelled protein; MST-optimized buffer; 15 minutes at room temperature; standard-treated capillaries; Monolith NT.115; 60% MST power; both purified

binding: binds
B1: Endothelial protein C receptor (receptor, UniProt Q9UNN8 18-210)
chain: SQDASDGLQRLHMLQISYFRDPYHVWYQGNASLGGHLTHVLEGPDTNTTIIQLQPLQEPESWARTQSGLQSYLLQFHGLVRLVHQERTLAFPLTIRCFLGCELPPEGSRAHVFFEVAVNGSSFVSFRPERALWQADTQVTSGVVTFTLQQLNAYNRTRYELREFLEDTCVQYVQKHISAENTKGSQTSRSYTS
